# Test results taken from the supplement of paper PMC3334620.
# Whole data set: some 33,000 sequences, median “E-score (-0.5 to 0.5)” near -0.016, cut for the highest 2% near 0.3. This is one part of the list.
# Biological target: T1, Yer184c (UniProt P39961)
# T1 sequence: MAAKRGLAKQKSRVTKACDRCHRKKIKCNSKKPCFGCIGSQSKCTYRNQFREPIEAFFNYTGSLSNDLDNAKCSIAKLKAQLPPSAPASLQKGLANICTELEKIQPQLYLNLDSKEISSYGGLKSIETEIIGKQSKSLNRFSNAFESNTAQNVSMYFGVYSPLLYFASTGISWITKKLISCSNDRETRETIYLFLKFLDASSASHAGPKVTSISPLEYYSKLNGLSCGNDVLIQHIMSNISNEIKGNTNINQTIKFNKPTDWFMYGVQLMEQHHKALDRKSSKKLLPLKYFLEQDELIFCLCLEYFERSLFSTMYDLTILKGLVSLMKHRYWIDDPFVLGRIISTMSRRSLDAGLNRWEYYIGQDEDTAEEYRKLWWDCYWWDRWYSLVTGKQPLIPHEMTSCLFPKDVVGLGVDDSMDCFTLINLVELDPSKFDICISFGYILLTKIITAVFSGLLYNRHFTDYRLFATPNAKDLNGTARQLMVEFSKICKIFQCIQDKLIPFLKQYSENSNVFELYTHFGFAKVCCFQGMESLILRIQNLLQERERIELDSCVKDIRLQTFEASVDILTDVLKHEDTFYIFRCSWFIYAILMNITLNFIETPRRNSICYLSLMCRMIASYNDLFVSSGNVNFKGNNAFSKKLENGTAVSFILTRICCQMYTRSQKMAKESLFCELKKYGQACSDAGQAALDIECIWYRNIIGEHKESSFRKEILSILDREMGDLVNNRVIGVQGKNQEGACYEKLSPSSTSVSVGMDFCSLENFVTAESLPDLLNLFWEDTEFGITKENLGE
# Assay: PBM E-score (8-mer binding enrichment) (E-score (-0.5 to 0.5)); higher = stronger / more preferred TF binding
# Conditions: protein concentration: 100 nM; construct: GST-full length
# Method in brief: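 Yeast transcription factors, full-length or as DNA-binding domains, were expressed with a GST tag using PURExpress in vitro transcription/translation. At about 100-200 nM they were applied to universal all-10-mer Agilent arrays, double-stranded by primer extension on fresh or once-stripped slides. Fluorescent anti-GST detected bound protein, and masliner normalised the scans. E-scores for ungapped eight-base words, pooled with reverse complements, came from the Universal PBM Analysis Suite.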
row,Sequence,PBM E-score
1,GATACTCA,0.0312
2,GACTCGCC,-0.225
3,AGCGCCGC,0.0842
4,CACCCGAA,0.209
5,AATGCCGA,0.378
6,GTCGTCGA,-0.251
7,GGCGAAAA,0.237
8,AGCAGAGA,-0.0449
9,ACGAAATG,-0.063
10,GCATTTAA,0.178
11,CCATCGCG,0.189
12,GAAGTCCA,-0.0666
13,AGAAGGCA,-0.199
14,CCGAGCAC,0.203
15,GCCCAGGA,-0.0122
16,TAACTATA,-0.0159
17,GCGGCAGC,-0.119
18,GACTAGCA,-0.185
19,AATCGAAT,0.122
20,ACGCTGTA,0.00315
21,CTTTAGAA,0.233
22,ACGTAGGA,-0.0346
23,CTGCCGCA,-0.117
24,CTATAATC,0.0504
25,AAACTTCT,0.196

# Seven entries from above, reformatted.
row | Sequence | PBM E-score
3 | AGCGCCGC | 0.0842
6 | GTCGTCGA | -0.251
10 | GCATTTAA | 0.178
13 | AGAAGGCA | -0.199
16 | TAACTATA | -0.0159
21 | CTTTAGAA | 0.233
24 | CTATAATC | 0.0504

# The list goes on:

row,Sequence,PBM E-score
1,GGCAAGCC,-0.137
2,AATTTGTG,0.139
3,AAGGACAA,0.0335
4,CCGGCTAA,0.3
5,CTGGGACA,-0.234
6,AACGCACT,0.0723
7,TAGCGCAA,0.0359
8,GTAGCGCA,-0.147
9,GCGTATTA,-0.0377
10,ACGGTCTC,-0.0951
11,AGTACGCC,-0.121
12,ATTAGTCG,0.0138
13,GGGTAGTA,-0.154
14,CACATCAG,-0.19
15,CGGCTTAG,0.213
16,ACTCCCTA,-0.154
17,CCTAACAC,0.152
18,CACTAGTA,-0.0824
19,GACTTACA,-0.0474
20,GATGCCTA,-0.109
21,GCGGTGCC,-0.0485
22,ACCAGGCC,0.0818
23,TAAATCGA,0.135
24,CAGTGGGG,-0.329
25,GAGGAAAC,0.0245

row,Sequence,PBM E-score
1,CCCGCTAA,-0.132
2,AACAGATA,0.0633
3,ACCTATAA,0.0255
4,CTGCTGTC,-0.0516
5,ATCGAGTC,-0.039
6,CACCACAC,-0.145
7,CGTGACAG,0.0369
8,ATCCGACA,0.162
9,AGCGCGGG,0.0344
10,CCGAAGCA,0.204
11,CAACATTG,-0.0313
12,CATGTAGA,-0.00013
13,ATCTGCAC,-0.0268
14,GCTGGATA,0.0407
15,GACTTTCC,-0.0958
16,AGACGATG,0.0198
17,GATGCCAC,-0.128
18,ACCTTAAC,0.00941
19,AGTTTCGC,-0.0623
20,GGTGTATA,-0.0735
21,AACCGTCC,-0.0788
22,ATTAAGAG,0.0705
23,ACCAGCCC,0.0368
24,CGATTGAC,0.134
25,ATACGGGA,-0.0103

row,Sequence,PBM E-score
1,ACCCGACA,0.0124
2,CCTATATA,0.026
3,ACGCCAGA,-0.132
4,CAAGCTAA,-0.157
5,AGACTCCG,-0.0142
6,CGCGGTGC,-0.126
7,ATCCACAT,0.0775
8,AGGGGAGG,-0.23
9,AAACAGTG,-0.0394
10,CAACTTCG,0.0579
11,CTTCCTGA,0.107
12,AATATTTG,0.149
13,AGCGTCCA,-0.0821
14,GCGTCCTA,-0.236
15,CCCGGCCG,0.371
16,CATACATC,-0.0101
17,GGGTACCC,-0.184
18,CAAAGCCA,-0.177
19,AATACTGG,-0.0692
20,CCCAGCAC,-0.221
21,GATTGCGA,0.196
22,CATATCAG,-0.147
23,CGGTTGAC,0.113
24,AGATTCTG,-0.0548
25,CGTAAAGA,0.0954

row,Sequence,PBM E-score
1,CAGACCCA,-0.131
2,CTGCTAGA,-0.0455
3,CGAGATCA,-0.0369
4,CCACTCCA,-0.188
5,CATTGCCA,0.0974
6,TCAAGCAA,-0.0759
7,AGCCGACG,0.12
8,CTTCGGGA,0.171
9,CCGCGTGA,0.141
10,AGTACCTG,-0.0935
11,CCATTCTA,-0.0184
12,ACTTCGTG,-0.0816
13,CGAAAATC,0.254
14,TATCGTCA,-0.1
15,ACGCGGCT,0.0493
16,AGCTACAT,-0.175
17,GATCCGCA,0.0531
18,CCCGCATC,-0.084
19,CGAACGAC,0.109
20,CCTGACAA,-0.115
21,AGGCTGTC,-0.108
22,TACGGCAA,0.158
23,CCAGGGTC,-0.283
24,CCATAGTC,-0.202
25,GAATGGTC,-0.0531

row,Sequence,PBM E-score
1,ACAATGGT,-0.24
2,AAGCGATT,-0.022
3,AACCCCAA,-0.102
4,ATTCCAGG,-0.161
5,ACCTGTAC,-0.0391
6,GATAAGTA,0.168
7,CCCGTCCA,-0.0786
8,AGACCTCG,0.0523
9,CTATAAGC,-0.0483
10,AAGAAAAT,0.265
11,CAGGTACG,-0.106
12,CGCAATCA,0.172
13,CATGCGGG,-0.0764
14,ATGGCTAC,-0.083
15,CAAGCGTC,-0.0502
16,AGGCGGGA,-0.104
17,GAGACATC,-0.0567
18,GACTACTA,0.096
19,GTAACCAA,0.12
20,ACTTTCAA,0.155
21,GATAAGAC,-0.0845
22,GCCTGCGC,-0.158
23,ACACCGGA,0.246
24,GACGTAAA,0.0285
25,CAGGTGTA,-0.273

row,Sequence,PBM E-score
1,GCGCGGAA,0.138
2,GCTGCGTA,-0.12
3,GTCCAATA,0.0552
4,GAAGGGCC,-0.164
5,GAGACGCA,0.0668
6,CAGTGAAC,-0.0206
7,GGACACAA,0.107
8,CAGTCGCG,-0.189
9,CATCATAG,-0.0492
10,CCTACCAC,-0.152
11,ATAGCGGG,-0.14
12,ACGCAGTA,-0.15
13,GGATGTCA,0.14
14,CTCTGCTA,-0.0157
15,CCGTGAGA,-0.0337
16,CACGTTTC,-0.0963
17,ATCACTGG,-0.147
18,ATGCTCAA,-0.198
19,ATCTTGCG,0.059
20,ACTTAAAT,0.15
21,ACTGTAAG,0.0451
22,TATAGTGA,0.0268
